In PubChem BioAssay AID1347426 (Functional Genomics Laboratory (NCATS/FGL), 2020) one finds median seed-adjusted z-score data, which are given here for 107 sequences.

Among all 31,000 sequences or so, about 1,400 (4.5%) were called active.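 How the source made its calls: active means median seed-adjusted z-score above 1 or below -1; inactive means the rest.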 Some of the results follow.

A short description of this experiment: Novel Modifiers of Survival Motor Neuron (SMN) Protein: Gene Identification via Genome-wide siRNA Screen.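 Further: luminescence tracks full-length SMN protein made from the SMN2 reporter.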 Particulars: HEK293T SMN2-luciferase reporter, siRNA knockdown, 72 h; actives lie on both sides. An outline of the steps: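 Each of three siRNAs per gene is reverse-transfected (1 pmol) into reporter HEK293T cells whose luciferase output tracks SMN protein level. After 72 h culture, ONE-Glo luminescence is control-normalized, log10-transformed and MAD-standardized; Common Seed Analysis deprioritizes seed-driven hits.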
For orientation: A reporter such as luciferase makes a cellular process visible.
Regarding GAACUCAACUUGGUCUGCATT against RPUSD4, the median seed-adjusted z-score is inactive: -0.0264.
For GCCGACUUAUUAAAACUGATT against UBP1 the value was inactive: 0.847.
Then GUGAUAAGCUGAGUACUGATT against TIPARP, with inactive: 0.372; and GCGGUGCUCUUAUAUAGCATT against APPBP2, with inactive: -0.0432.
For GUAUUAUUAGGGUUACGAATT against PHF21B, the median seed-adjusted z-score was inactive: 0.327.
For CAGGCUCACUCGCAAAGAATT against USP31 the value was inactive: -0.755.
For GCCUCCCACUACUUUGAAATT against IL2RB the value was inactive: 0.333.
Then GGCUAACUGUGACUGGAUUTT against OVCH2, with inactive: 0.439; and GCAUCAAGUCCGAACCGAUTT against MEF2A, with inactive: -0.0658; and GAAUACUACCUUGACGGAATT against IL10RB, with inactive: 0.167.
As for CGAAAUUUCCCGGACCUGATT against CPZ, the median seed-adjusted z-score was inactive: -0.0748.
Then CUUUUGAACAAAUCCAGAATT against SYT1, with inactive: 0.435; and GAACGAAAGGUCCUCAGUATT against SPATA21, with active: -1.03; and CACUUGACAUGGUUGUGCATT against PIGF, with inactive: -0.239.
Consider UCAUCGUGGUGCUUUCGGATT against SIGIRR, for which the median seed-adjusted z-score was inactive: 0.0269.
Then UGAACUACGUGACCGCGAATT against ELAVL1, with inactive: 0.316; and GCACUAGAGCAGUUCCAAUTT against HS2ST1, with inactive: 0.421; and GGAAGUAAAUGUUGUUUUATT against CCL11, with inactive: -0.221.
For CAUGGUCCUUGAUCUCUUUTT against SCNN1B the value was inactive: 0.585.
Then GAUGAUAUUUAUUCACCAATT against ZBTB25, with inactive: 0; and CAACAACCUUACACGAGUATT against LRIG2, with inactive: 0.386.
Consider GAGCAGUACUGGGAAGAGATT against CARD14, for which the median seed-adjusted z-score was inactive: -0.104.
Turning to AGCAGGUUUUGGGAACCAATT against FCN3, the median seed-adjusted z-score was inactive: -0.112.
For AGUUUACAGUGACAGCUUATT against CLSTN3 the value was inactive: 0; for GGAGCACUACGUGCUGUACTT against EFNA2, inactive: -0.314.
For CCAUAGAACGAGCAACCUUTT against CASP5 the value was inactive: 0.655; for GCAUAAGGUUCAGAGCCUATT against CUX1, inactive: -0.527; for CUGUGAGAAUAAUCGCUAUTT against PDHA1, inactive: 0.346.
Then CAGUCUGAGUGUGAGUACATT against APLNR, with inactive: 0.794.
With GAGAAGAUAUUGCAAAAUATT against SLU7, the median seed-adjusted z-score was inactive: -0.97.
For GACCUUAGCUUAUCUGGGATT against TUBB4 the value was inactive: 0; for CCCAUGUACUGCUUCAUCUTT against MC1R, inactive: -0.64.
Then GAUAAGCGAUGUCAACAUATT against SYCP1, with inactive: -0.0197; and GCUAAUCAAUUGAUGCUUUTT against SNUPN, with inactive: -0.199; and GUUCCGAGUUUGUUAUACATT against ZNF19, with inactive: 0.
Then CAUCAGCCCUAUCAACUUATT against SYNPO2L, with inactive: -0.47.
In the case of GGAAUAUGCAAGAUUACCATT against MYST4, the median seed-adjusted z-score is inactive: 0.138.
For GAAGUUACCUCAUCCUAUUTT against FGD6 the value was inactive: 0.536; for GGCAAGAAGUACAACUGGATT against GFOD1, inactive: 0.923; for CGCAGGUUCUACCAGAUGATT against HS3ST6, inactive: 0.
For GAACAUCGUGAACUACCUATT against ACTL8 the value was inactive: 0.
For GAUGCUAUAUUUCCGCAUATT against TYK2 the value was inactive: -0.549; for CGAAAGACCCUGACCUUCATT against BSPRY, inactive: -0.399.
Regarding GGGAGAACCAGGGAAAGGATT against COL13A1, the median seed-adjusted z-score was inactive: -0.112.
Then AUCCCUACCUGAACCUACATT against RAVER1, with inactive: -0.0873.
Then AGAUCAAUGGAGUAGCAGATT against TRMT12, with inactive: 0.352; and GCUUUGAUCUGGAGUCAUATT against ZMIZ1, with inactive: -0.382; and GUGUCUUACUUUAUAGAAATT against ASCL1, with inactive: 0.132.
Then GAUCCACCUGAGACAGAAATT against EGR2, with inactive: -0.37; and CGAUGGACCGAUAACAAGATT against EFCAB6, with inactive: 0.206; and GCCUUUACGUGGUGUCUAATT against CPT1A, with inactive: 0.129.
On to GAACCGAUCUUAUAGGUUATT against DHX16, for which the median seed-adjusted z-score is inactive: 0.102.
GGGAAGAGGUAUAAACAAATT against ADCYAP1: the median seed-adjusted z-score was inactive: 0.229.
Then GAUACCUCAUAAAUAGCUATT against B3GNT5, with inactive: -0.452; and GGAUGCACUUCUAAACUCATT against AKR1D1, with inactive: 0.211.
For GGUGUCUACUUGAGAAACATT against LSS the value was inactive: -0.302; for GUACCAAUAUGAACGGUAUTT against IRX6, inactive: -0.0329; for CCUCGAUUCCAUUAUCAUUTT against RECQL4, inactive: 0.475.
On to GGAUGGGUCCAUUAUAUGATT against CKS1B, for which the median seed-adjusted z-score is inactive: 0.00314.
Turning to UCCAGUUUCUUUAUCCUAATT against ATP5F1, the median seed-adjusted z-score is inactive: -0.323.
Then CCUACAAGCUGGGUGAGCATT against MFSD3, with inactive: -0.0706; and GCACUACCUUCAUAGAAAUTT against PIGH, with inactive: -0.327; and CCAUCUACAUGAUCAACCUTT against GPR55, with inactive: -0.114.
GUACAUUGACAGAAUUGAUTT against UBTF: the median seed-adjusted z-score is inactive: 0.942.
For CCUAAAUGGUAGCUCUAAATT against RANBP9 the value was inactive: -0.467; for GACAGACAAUAAUCGCAUUTT against CCT3, inactive: -0.416.
Then AGAUGGUGACUAUAAGUCUTT against ALX3, with inactive: -0.0707; and ACGCAGACAUGUUCUGGAATT against TRPM5, with inactive: -0.0565; and CGGAUUGUCUAUUGCAUCATT against CALCRL, with inactive: 0.28.
For GUUGAGAGCUCAAAACUAATT against ZFP42 the value was inactive: -0.537; for AAAGAAUCCGGUAUAAAAATT against PBX4, inactive: -0.855.
Turning to CAUGCUCGUGGGUAACAAATT against RAB25, the median seed-adjusted z-score is inactive: -0.04.
Then CAGUGUUAGUCAUAUCGUATT against DHX36, with inactive: 0.165.
Then AGAGCAAAACAGUCCGAUATT against PCDH8, with active: -1.03; and CACCUGCGAGUGUUCCAAUTT against CSTB, with active: 1.08.
Turning to GGAGUAAUAAAAUCAAGUUTT against GTF2I, the median seed-adjusted z-score was inactive: 0.379.
As for GACUACUUACGGUUCAAGATT against VAMP7, the median seed-adjusted z-score was inactive: -0.00527.
With CAAUGAACAUGACUAUGCATT against TTC35, the median seed-adjusted z-score was inactive: -0.0898.
Then GGAGCGAUGCCUUAGGAUATT against NSUN2, with inactive: -0.707; and GAUCCUCAUGAAAAACGAATT against HOXC11, with inactive: -0.188; and UCAUGUAUGUGGGAGCCAATT against SNCG, with inactive: -0.169.
For CAAUCACGCGGACCCAGAATT against PSMB4 the value was inactive: -0.16; for AAGACAAGCUGGUGCGCAATT against ZBTB7B, inactive: -0.242.
Then GGAAUUUGAGAACCCUGAATT against LMTK3, with inactive: 0.
As for GCACCUUCGUCCUCAACUUTT against PROC, the median seed-adjusted z-score was inactive: -0.228.
Then CAUGAUCGAUUUCCAAUUATT against DNAH8, with inactive: 0; and GGAUAAAGACUAUCCGAGATT against MMP13, with inactive: 0.265; and GGAUGGUUGUGAACAUUGATT against KRT32, with inactive: -0.000598.
Then AACCCUUUGUGGAACACCATT against PSMB4, with inactive: -0.16; and GGACUUCUCUAUAUAGCUATT against ZMYND12, with inactive: 0.0551; and CAGUCUAUGAGCUUACAAATT against SMAD1, with inactive: -0.0282.
For GCGUCAACCCUUUCUUGUATT against CCR7 the value was inactive: 0.244; for CAUCAACACCUUCCACCAATT against S100A9, inactive: -0.0953.
For the sequence GCAGCUGUAUAAGUUACUATT against NFKB1, the median seed-adjusted z-score is inactive: 0.31.
For GAGGAAUUCAUUAAUGAUATT against ASCC1 the value was inactive: -0.00853; for AAUUCACCGUGAGCCUGAATT against CENTB1, inactive: -0.239; for AGCCCUCCCUAUACCCUUATT against ACCN3, inactive: -0.114.
Then CAGCGGCUACAUAAACUCATT against COL17A1, with inactive: 0.252.
For GGGACGAAGUCACAAGUCATT against CLIP1 the value was inactive: 0.853.
As for GGGAUUACUCCUUCAAUGATT against GRIN2D, the median seed-adjusted z-score was inactive: -0.135.
For GAACAUAAGCGACCGCUUUTT against SLC7A7 the value was inactive: 0.209.
For GCACUUACACUCUGUUUAATT against FGF13 the value was inactive: 0.875; for AAGUCUUAUUGCUUGUACATT against BZRPL1, inactive: 0.0787.
Then CUUGCAAUGUCGAAGCUUATT against CDH8, with inactive: 0.169; and ACAGAAUAAUGUACAAGAATT against POLR2K, with active: -3.72.
On to GAAUCGAAAAAGAAGUGAATT against GIPC2, for which the median seed-adjusted z-score is inactive: -0.0367.
Then GGAAAGAGUUCAGUCGGAATT against ZNF671, with inactive: -0.0551.
